This series can be described thus: general procedure: Fmoc solid-phase peptide synthesis; Rink Amide Tentagel resin. The following applies: whole synthesis, 220 nm.

End groups of sequences in plain letters are not given here.

Take MARADONA: the “crude purity (method not given)” value was “above 80%”.

Turning to KLLQDILDA, where the note is “run 1”, the “crude purity (method not given)” value was “above 97%”.
